Assay results taken from the supplement of paper PMC10849652.
Some of the results follow.

The chains behind the UniProt entries cited, without tags or fusion partners. Where a name states a change or a piece, a line headed by the entry shows the natural chain unless it says otherwise.
UniProt P06753, whole entry, looked up: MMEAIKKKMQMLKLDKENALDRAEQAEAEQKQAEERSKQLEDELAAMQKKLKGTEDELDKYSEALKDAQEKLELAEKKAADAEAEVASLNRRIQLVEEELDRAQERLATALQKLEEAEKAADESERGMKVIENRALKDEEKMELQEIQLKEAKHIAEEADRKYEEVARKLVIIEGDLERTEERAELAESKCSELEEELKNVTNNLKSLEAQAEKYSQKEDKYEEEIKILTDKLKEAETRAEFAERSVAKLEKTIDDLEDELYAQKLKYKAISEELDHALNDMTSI
UniProt P20333, whole entry, looked up: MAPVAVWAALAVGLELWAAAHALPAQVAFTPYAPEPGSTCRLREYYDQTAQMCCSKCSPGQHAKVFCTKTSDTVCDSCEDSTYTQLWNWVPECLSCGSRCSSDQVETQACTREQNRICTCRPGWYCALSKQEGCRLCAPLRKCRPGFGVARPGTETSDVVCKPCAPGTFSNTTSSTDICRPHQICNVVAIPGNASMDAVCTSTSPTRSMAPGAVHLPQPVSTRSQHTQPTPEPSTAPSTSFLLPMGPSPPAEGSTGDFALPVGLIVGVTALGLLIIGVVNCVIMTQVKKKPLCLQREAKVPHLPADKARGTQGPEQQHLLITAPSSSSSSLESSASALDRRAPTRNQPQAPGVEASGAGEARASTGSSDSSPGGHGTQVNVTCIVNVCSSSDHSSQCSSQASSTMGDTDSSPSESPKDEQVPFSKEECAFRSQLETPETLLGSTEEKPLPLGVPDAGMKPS
UniProt Q9H497: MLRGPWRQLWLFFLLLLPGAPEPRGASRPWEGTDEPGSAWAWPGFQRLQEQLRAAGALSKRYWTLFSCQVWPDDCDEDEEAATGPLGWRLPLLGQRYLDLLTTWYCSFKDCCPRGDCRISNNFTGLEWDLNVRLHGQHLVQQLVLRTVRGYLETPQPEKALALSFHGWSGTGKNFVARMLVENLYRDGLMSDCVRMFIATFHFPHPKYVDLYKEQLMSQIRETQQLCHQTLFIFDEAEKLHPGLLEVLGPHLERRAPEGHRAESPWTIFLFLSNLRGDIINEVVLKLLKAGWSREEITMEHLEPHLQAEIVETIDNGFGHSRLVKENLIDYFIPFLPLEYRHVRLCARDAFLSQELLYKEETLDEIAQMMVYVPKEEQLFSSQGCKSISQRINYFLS
UniProt Q8TBZ6: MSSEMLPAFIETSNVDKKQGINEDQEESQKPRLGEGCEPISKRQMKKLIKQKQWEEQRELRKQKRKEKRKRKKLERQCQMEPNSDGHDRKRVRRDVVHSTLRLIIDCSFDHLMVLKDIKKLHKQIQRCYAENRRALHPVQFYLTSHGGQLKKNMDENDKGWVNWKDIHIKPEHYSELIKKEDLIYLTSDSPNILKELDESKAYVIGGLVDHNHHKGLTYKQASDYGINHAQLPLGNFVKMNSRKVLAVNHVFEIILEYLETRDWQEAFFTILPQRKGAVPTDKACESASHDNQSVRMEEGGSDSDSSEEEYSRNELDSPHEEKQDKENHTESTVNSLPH
UniProt Q9Y296, whole entry, looked up: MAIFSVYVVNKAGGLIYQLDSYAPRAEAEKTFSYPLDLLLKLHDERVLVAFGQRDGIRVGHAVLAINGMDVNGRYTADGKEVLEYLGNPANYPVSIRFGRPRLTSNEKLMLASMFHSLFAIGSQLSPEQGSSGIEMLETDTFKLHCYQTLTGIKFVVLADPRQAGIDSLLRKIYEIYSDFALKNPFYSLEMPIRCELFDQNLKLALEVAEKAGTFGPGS
UniProt Q9NUP7: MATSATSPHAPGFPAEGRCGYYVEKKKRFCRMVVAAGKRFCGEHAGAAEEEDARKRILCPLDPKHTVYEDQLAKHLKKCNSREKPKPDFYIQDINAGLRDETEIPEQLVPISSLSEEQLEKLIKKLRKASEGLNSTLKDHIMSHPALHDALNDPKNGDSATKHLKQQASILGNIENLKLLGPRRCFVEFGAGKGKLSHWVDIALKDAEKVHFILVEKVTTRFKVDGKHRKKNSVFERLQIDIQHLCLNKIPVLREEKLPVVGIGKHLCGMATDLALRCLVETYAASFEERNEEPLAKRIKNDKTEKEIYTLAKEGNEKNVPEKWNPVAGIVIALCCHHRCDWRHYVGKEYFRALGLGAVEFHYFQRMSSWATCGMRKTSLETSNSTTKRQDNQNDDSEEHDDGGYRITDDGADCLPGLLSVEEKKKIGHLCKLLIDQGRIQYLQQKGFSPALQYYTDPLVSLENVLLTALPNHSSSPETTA
UniProt Q13263: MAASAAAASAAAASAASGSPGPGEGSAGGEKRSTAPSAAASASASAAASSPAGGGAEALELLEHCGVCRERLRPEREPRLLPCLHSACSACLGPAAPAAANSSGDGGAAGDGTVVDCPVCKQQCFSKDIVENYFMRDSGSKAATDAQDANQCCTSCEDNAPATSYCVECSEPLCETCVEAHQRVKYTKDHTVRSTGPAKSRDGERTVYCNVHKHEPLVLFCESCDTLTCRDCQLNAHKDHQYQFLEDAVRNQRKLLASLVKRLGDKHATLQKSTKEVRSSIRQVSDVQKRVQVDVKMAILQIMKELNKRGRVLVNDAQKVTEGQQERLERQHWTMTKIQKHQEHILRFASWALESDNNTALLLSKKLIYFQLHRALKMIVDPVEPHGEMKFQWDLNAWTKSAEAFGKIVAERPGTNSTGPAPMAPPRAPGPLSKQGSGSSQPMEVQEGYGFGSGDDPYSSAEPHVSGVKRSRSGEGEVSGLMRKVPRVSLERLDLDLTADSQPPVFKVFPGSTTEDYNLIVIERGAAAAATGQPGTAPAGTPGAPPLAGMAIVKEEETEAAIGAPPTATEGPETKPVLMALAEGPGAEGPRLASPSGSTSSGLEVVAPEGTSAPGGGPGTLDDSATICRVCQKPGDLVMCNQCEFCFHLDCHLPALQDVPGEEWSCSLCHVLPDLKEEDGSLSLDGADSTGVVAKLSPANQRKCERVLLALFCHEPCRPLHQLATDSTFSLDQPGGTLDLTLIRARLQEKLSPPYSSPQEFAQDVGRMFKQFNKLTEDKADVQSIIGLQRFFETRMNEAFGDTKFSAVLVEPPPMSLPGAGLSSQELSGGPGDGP
UniProt Q7Z4G4: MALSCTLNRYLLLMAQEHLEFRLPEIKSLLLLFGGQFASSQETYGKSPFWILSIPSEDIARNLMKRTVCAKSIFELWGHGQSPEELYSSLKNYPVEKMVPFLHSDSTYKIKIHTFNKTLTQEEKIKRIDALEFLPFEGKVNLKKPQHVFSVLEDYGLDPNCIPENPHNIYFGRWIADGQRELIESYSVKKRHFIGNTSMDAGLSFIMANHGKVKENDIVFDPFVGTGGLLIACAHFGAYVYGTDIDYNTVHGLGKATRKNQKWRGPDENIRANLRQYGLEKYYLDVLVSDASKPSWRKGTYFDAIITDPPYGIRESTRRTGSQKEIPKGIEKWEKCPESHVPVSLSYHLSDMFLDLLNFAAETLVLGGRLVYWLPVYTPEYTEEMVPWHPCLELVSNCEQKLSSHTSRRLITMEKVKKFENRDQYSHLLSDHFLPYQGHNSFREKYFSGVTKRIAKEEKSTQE
UniProt Q02880: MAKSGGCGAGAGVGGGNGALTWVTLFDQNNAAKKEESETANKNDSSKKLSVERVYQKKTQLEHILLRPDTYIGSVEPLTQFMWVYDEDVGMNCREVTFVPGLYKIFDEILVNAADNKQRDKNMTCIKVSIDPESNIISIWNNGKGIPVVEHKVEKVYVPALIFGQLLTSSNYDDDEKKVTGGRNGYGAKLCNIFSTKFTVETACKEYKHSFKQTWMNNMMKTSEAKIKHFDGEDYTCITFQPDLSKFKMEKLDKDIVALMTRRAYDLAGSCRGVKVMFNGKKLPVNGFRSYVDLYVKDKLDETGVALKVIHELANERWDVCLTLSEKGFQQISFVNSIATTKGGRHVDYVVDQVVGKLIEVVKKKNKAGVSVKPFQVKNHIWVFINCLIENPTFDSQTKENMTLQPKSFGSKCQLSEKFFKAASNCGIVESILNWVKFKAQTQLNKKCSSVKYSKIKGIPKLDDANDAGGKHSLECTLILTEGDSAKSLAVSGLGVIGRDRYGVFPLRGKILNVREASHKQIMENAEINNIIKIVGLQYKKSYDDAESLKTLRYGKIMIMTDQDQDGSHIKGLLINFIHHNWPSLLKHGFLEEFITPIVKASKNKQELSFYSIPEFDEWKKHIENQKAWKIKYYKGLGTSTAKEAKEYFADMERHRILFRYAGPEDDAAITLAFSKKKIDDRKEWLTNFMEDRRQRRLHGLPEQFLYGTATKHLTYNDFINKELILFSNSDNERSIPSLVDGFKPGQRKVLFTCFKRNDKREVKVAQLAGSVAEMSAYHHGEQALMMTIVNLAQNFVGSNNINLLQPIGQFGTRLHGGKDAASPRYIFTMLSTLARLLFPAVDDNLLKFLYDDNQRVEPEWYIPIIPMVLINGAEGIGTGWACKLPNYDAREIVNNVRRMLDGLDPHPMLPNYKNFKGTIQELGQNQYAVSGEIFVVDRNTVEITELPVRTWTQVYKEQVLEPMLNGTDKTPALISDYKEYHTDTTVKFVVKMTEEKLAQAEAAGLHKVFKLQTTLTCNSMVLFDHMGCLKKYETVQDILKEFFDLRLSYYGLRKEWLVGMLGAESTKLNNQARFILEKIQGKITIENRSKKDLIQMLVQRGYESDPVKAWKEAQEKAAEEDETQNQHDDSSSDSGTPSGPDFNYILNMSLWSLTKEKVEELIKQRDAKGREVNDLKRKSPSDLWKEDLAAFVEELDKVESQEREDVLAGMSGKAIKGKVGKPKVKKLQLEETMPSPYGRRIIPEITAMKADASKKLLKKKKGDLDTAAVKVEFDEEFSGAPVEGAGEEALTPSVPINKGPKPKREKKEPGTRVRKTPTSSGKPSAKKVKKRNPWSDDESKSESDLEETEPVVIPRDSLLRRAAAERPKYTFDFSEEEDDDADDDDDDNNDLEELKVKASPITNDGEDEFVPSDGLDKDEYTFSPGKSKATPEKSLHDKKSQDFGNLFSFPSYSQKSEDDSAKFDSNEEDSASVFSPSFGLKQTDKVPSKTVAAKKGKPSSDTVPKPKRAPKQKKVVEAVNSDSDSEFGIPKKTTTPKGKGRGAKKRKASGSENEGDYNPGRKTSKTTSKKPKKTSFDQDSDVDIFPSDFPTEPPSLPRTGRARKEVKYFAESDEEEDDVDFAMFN
UniProt Q15785: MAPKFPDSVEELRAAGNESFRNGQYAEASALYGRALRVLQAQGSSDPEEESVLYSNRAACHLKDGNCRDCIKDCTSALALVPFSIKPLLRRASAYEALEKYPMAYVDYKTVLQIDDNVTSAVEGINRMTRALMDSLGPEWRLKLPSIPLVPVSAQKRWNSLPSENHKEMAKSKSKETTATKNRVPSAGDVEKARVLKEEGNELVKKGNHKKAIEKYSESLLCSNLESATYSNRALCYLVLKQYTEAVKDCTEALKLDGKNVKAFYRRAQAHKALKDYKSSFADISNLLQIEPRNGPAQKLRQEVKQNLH
UniProt Q9Y3Q8: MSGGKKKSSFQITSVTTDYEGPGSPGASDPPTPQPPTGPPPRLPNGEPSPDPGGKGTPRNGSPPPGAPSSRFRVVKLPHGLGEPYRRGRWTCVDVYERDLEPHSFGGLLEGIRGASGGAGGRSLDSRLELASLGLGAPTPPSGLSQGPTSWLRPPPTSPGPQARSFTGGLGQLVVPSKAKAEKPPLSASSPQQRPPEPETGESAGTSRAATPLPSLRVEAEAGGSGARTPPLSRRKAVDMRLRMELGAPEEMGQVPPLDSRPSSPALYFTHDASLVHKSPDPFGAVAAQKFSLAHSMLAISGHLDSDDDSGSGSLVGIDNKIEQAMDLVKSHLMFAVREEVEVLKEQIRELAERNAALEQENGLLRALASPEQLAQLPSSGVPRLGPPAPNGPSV
UniProt P36406: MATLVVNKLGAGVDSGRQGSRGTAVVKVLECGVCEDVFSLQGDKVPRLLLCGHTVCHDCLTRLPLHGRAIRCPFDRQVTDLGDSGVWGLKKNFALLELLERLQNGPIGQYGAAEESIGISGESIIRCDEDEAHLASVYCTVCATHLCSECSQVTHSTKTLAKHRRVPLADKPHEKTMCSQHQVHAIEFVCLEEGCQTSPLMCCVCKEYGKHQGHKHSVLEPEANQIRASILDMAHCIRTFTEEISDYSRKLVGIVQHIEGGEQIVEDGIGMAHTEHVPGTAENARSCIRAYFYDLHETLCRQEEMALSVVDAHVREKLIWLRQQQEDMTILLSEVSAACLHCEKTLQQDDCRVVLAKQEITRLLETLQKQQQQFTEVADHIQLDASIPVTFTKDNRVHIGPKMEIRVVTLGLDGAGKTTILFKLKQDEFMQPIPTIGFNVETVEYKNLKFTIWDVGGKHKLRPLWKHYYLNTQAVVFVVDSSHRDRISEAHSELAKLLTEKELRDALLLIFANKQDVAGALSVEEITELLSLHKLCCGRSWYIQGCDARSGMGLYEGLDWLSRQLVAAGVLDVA

Key:
Assay in all cases: log2 fold change, soluble protein after heating vs DMSO (PISA); higher = thermal stabilisation; K562 cells, 10 uM, 30 min; active = over 0.2 and 3.5 SD of the protein, either way, in both replicates (recomputed)
[1] = compound: CN1CCN(CCOc2cc(OC3CCOCC3)c3c(Nc4c(Cl)ccc5c4OCO5)ncnc3c2)CC1 [saracatinib]
In short: (§1)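 Values are thermal stability changes relative to control samples and are taken from duplicates. They are stated as log2 fold changes. Before quantification by TMTpro 16plex LC-MS/MS with equalised channel sums, K562 cells at 2×10^6 cells/mL were treated with 10 μM compound for 30 min, heated in aliquots for 3 min across 48°C-58°C, pooled, extracted in PBS with 0.5% NP-40 at 4°C, and centrifuged at 21,000xg for 90 min to give the soluble supernatant.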

[2] = compound: CN1CCN(c2nc(C3=C(c4c[nH]c5ccccc45)C(=O)NC3=O)c3ccccc3n2)CC1 [sotrastaurin]
In short: as §1

[3] = compound: CN1CC[C@H](c2c(O)cc(O)c3c(=O)cc(-c4ccccc4Cl)oc23)[C@H](O)C1 [alvocidib]
In short: as §1

[4] = compound: CN1CCc2c(c3ccccc3n2Cc2ccc(C(=O)NO)cc2)C1 [Tubastatin A]
In short: as §1

[5] = compound: CNC(=O)C1=CC=CC=C1NC2=NC(=NC=C2Cl)NC3=C(C=C(C=C3)N4CCOCC4)OC
In short: as §1

[6] = compound: CNC(=O)c1ccc(Nc2ncc(C(F)(F)F)c(NCc3nccnc3N(C)S(C)(=O)=O)n2)cc1 [defactinib]
In short: as §1

[7] = compound: CNCc1ccc(-c2[nH]c3cc(F)cc4c3c2CCNC4=O)cc1 [rucaparib]
In short: as §1

[8] = compound: CNc1nc(-c2ccc3c(N)n[nH]c3c2)cc(N2C[C@@H](C(=O)NC3CCCCC3)CC[C@H]2C)n1
In short: as §1

[9] = compound: COC(=O)N[C@@H](C)CNc1nccc(-c2cn(C(C)C)nc2-c2cc(Cl)cc(NS(C)(=O)=O)c2F)n1 [encorafenib]
In short: as §1

[10] = compound: COC(=O)[C@H](CCSC)NC(=O)C1=C(C=C(C=C1)NC[C@H](CS)N)C2=CC=CC=C2
In short: as §1

Measured: log2 fold change

TPM4, A0A2R8Y5V9
inactive: [1] 0.024 | [2] 0.008 | [3] 0.018 | [4] -0.004 | [5] -0.035 | [6] -0.061 | [7] -0.056 | [8] -0.076 | [9] -0.048 | [10] 0.016

TOR2A (UniProt Q5JU69)
inactive: [1] -0.007 | [2] 0.006 | [3] -0.029 | [4] 0.079 | [5] -0.014 | [6] -0.066 | [7] -0.036 | [8] 0.031 | [9] 0.064 | [10] -0.265

TPM3 isoform 2 (UniProt P06753)
inactive: [1] 0.009 | [2] 0.066 | [3] -0.003 | [4] 0.034 | [5] -0.005 | [6] -0.031 | [7] -0.079 | [8] -0.001 | [9] -0.041 | [10] -0.014

TNFRSF1B (UniProt P20333)
inactive: [1] 0.235 | [2] 0.019 | [3] 0.018 | [4] 0.047 | [5] 0.022 | [6] 0.082 | [7] 0.068 | [8] -0.072 | [9] 0.036 | [10] 0.174

TOR3A (UniProt Q9H497)
inactive: [1] -0.003 | [2] -0.007 | [3] -0.009 | [4] 0.009 | [5] -0.103 | [6] -0.007 | [7] 0.048 | [8] 0.005 | [9] -0.022 | [10] -0.013

TRMT10A (UniProt Q8TBZ6)
inactive: [1] -0.028 | [2] -0.024 | [4] -0.038 | [5] 0.054 | [6] -0.06 | [7] 0.016 | [8] 0.032 | [9] 0.026 | [10] 0.036

TRAPPC4 (UniProt Q9Y296)
inactive: [1] 0.071 | [2] 0.006 | [3] -0.017 | [4] -0.027 | [5] 0.002 | [6] -0.031 | [7] -0.063 | [8] -0.039 | [9] -0.022 | [10] 0.02

TRMT13 (UniProt Q9NUP7)
inactive: [1] 0.045 | [2] -0.05 | [3] -0.096 | [4] 0.007 | [5] 0.005 | [6] -0.103 | [7] -0.038 | [8] -0.072 | [9] 0.041 | [10] 0.001

TRIM28 (UniProt Q13263)
inactive: [1] 0.008 | [2] -0.064 | [4] 0.048 | [5] 0.054 | [6] -0.121 | [7] -0.075 | [8] -0.019 | [9] 0.047 | [10] -0.032

Taken from above (two entries):
TPM3 isoform 2 (UniProt P06753)
inactive: [1] 0.009 | [2] 0.066 | [3] -0.003 | [4] 0.034 | [5] -0.005 | [6] -0.031 | [7] -0.079 | [8] -0.001 | [9] -0.041 | [10] -0.014

TNFRSF1B (UniProt P20333)
inactive: [1] 0.235 | [2] 0.019 | [3] 0.018 | [4] 0.047 | [5] 0.022 | [6] 0.082 | [7] 0.068 | [8] -0.072 | [9] 0.036 | [10] 0.174

(list continues)

TRMT11 (UniProt Q7Z4G4)
inactive: [1] 0.054 | [2] 0.083 | [3] -0.053 | [4] 0.001 | [5] -0.021 | [6] -0.017 | [7] 0.03 | [8] -0.006 | [9] -0.006 | [10] 0.054

TOP2B (UniProt Q02880)
inactive: [1] -0.134 | [2] -0.01 | [3] 0.288 | [4] -0.013 | [5] 0.037 | [6] 0.416 | [7] 0.484 | [8] 0.128 | [9] 0.245 | [10] 0.053

TOMM34 (UniProt Q15785)
inactive: [1] -0.11 | [2] -0.156 | [3] -0.043 | [4] 0.042 | [5] -0.068 | [6] -0.047 | [7] 0.097 | [8] 0.034 | [9] 0.076 | [10] -0.116

TSC22D4 (UniProt Q9Y3Q8)
inactive: [1] 0.018 | [2] 0.01 | [3] -0.053 | [4] -0.001 | [5] 0.003 | [6] -0.002 | [7] 0.004 | [8] 0.033 | [9] -0.039 | [10] 0

TRIM23 (UniProt P36406)
inactive: [1] 0.033 | [2] 0.075 | [4] 0.032 | [5] -0.049 | [6] -0.004 | [7] 0.057 | [8] 0.035 | [9] 0.012 | [10] -0.039
